# PubChem BioAssay AID2685 (National Center for Advancing Translational Sciences (NCATS), 2010)
# The list shows a part of the results. Shown are side measurements of this screen, not its main read-out; they come without a call. The list favours compounds with an active or inconclusive main result. The note in brackets gives the kind of curve behind each potency; many fits are weak. Where a SMILES comes first, the peptide text is derived from it. The star is where a group is joined. Boc = CC(C)(C)OC(=O)*; Bn = c1ccc(C*)cc1
# Test: qHTS Assay for Lipid Storage Modulators in Drosophila S3 Cells;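 for cell number change: cells counted by Cell Tracker Red CMTPX staining in the red channel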
# Settings: BODIPY lipid droplet fluorescence, 18-24 h; for cell number change: measured here: cell count max response, cells fed with added oleic acid
# Method in brief: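 Drosophila S3 cells loaded with oleic acid (400 uM, as added) and compounds at several concentrations; lipid droplets imaged by 488-nm laser-scanning cytometry, 500–530 nm intensity and object ratio to cell channel. Percent activity normalized to 20 uM Triacsin C.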
# [1] = measured here: lipid fluorescence (Fed channel) AC50, cells fed with added oleic acid
# [2] = measured here: cell number channel AC50, cells fed with added oleic acid
structure (smiles),measurement,setting,value
CCC1CCCCN1CCCNC(=O)Cn1ncn2nc(-c3ccc(OC)cc3)cc2c1=O (centres undefined),cell number change,,15.1%
CN(Cc1ccccc1)C(=O)c1ccccc1NC(=O)C1=CSCCO1,cell number change,,-13.5%
same,AC50,[1],"29.1 µM [rising, single point]"
CCn1c(C)nc2cc(C(=O)N/N=C/c3cccc(O)c3O)ccc21,cell number change,,-28.2%
same,AC50,[1],"29.1 µM [falling, single point]"
O=C(NCCN1CCN(c2cccc(Cl)c2)CC1)Nc1ccccc1,cell number change,,12.5%
Cc1ccc(OCC(=O)N2N=C(c3ccncc3)CC2(O)C(F)(F)F)cc1C (centres undefined),cell number change,,23.4%
same,AC50,[2],"1.03 µM [rising, partial curve]"
same,AC50,[1],"0.231 µM [rising, full curve]"
O=C(CNC(=O)c1ccco1)OCC(=O)c1ccccc1,cell number change,,-49.6%
COc1ccc(OCCCc2c(C)n[nH]c2C)cc1,cell number change,,-34.5%
CN(C)c1ccc(C2CC(c3cccc(NS(C)(=O)=O)c3)=NN2C(=O)c2ccccc2)cc1 (centres undefined),cell number change,,-7.58%
same,AC50,[1],"0.259 µM [rising, partial curve, poor fit]"
CC(C)(C)c1ccc(C(=O)N/N=C/c2cccc(Cl)c2)cc1,AC50,[2],"1.46 µM [rising, full curve]"
same,AC50,[1],"0.731 µM [rising, full curve]"
CC(C)COc1cccc(C(=O)N2CCN(C(=O)c3ccco3)CC2)c1,cell number change,,-38.1%
same,AC50,[2],"18.4 µM [falling, single point]"
CC1(C)C=Cc2c(c3ccccc3[nH]c2=O)O1,cell number change,,-21.2%
same,AC50,[1],"1.84 µM [rising, single point]"
CCOC(=O)N1CCC(N2Cc3cccc(C(=O)Nc4c(C)cccc4CC)c3C2=O)CC1,cell number change,,6.45%
same,AC50,[1],"16.4 µM [falling, partial curve]"
Cc1ccc(C)c(NC(=O)C(NCC(C)(C)N2CCOCC2)c2ccccc2)c1 (centres undefined),cell number change,,-21.6%
same,AC50,[1],"29.1 µM [falling, single point]"
COc1cc(NC(=O)C2CC(=O)NC3=C2C(=O)CC(C)(C)C3)c(OC)cc1Cl (centres undefined),cell number change,,4.89%
Cc1nc2nc(-c3ccccc3)cc(=O)n2[nH]1,cell number change,,2.16%
same,AC50,[1],"0.517 µM [falling, full curve, poor fit]"
O=C(NC1CCCC1)C(c1ccncc1)N(C(=O)c1csnn1)c1ccc(F)cc1 (centres undefined),cell number change,,-21%
COc1ccc(OC)c2sc(NC(=O)C(C)C)nc12,AC50,[1],"6.51 µM [rising, single point]"
COC(=O)c1ccc(NC(=O)CSc2nc3ncccc3[nH]2)cc1,cell number change,,-44.3%
same,AC50,[2],"2.91 µM [rising, partial curve]"
same,AC50,[1],"23.1 µM [falling, single point]"
C=CCOc1c(CNc2ccc(C(=O)O)cc2)cccc1OC,cell number change,,-8.83%
Cc1ccccc1C(=O)N1CCC(C(=O)NC2CCCCC2)CC1,cell number change,,-3.95%
same,AC50,[1],"35.5 µM [rising, single point]"
N#CC1(NC(=O)COc2ccc3ccc(=O)oc3c2)CCCCC1,cell number change,,35.4%
same,AC50,[2],"18.4 µM [rising, single point]"
CC(C)CC(c1nnnn1C(C)(C)C)N1CCN(C2CCCC2)CC1 (centres undefined),cell number change,,-46.2%
same,AC50,[2],"5.8 µM [falling, partial curve]"
same,AC50,[1],"29.1 µM [falling, single point]"
O=C(O)c1ccccc1-c1ccccc1C(=O)Nc1cccc(O)c1,cell number change,,16.1%
same,AC50,[1],"3.66 µM [rising, single point]"
CN(CC(=O)Nc1ccc(F)cc1)c1ccc(S(=O)(=O)N2CCCCC2)cc1[N+](=O)[O-],cell number change,,-22.2%
Cc1ccc(-c2csc(NC(=O)CSc3nc(C)cs3)n2)cc1,cell number change,,-61.9%
same,AC50,[2],"7.31 µM [falling, partial curve]"
C=CCn1c(CSCc2ccccc2)nnc1SCC(=O)NCc1ccccc1,cell number change,,-8.62%
O=C(c1ccccc1F)N1CCN(C2CCC(c3ccccc3)CC2)CC1 (centres undefined),cell number change,,-8.16%
same,AC50,[2],"6.51 µM [falling, single point]"
same,AC50,[1],"6.51 µM [falling, single point]"
COc1ccc(Cl)cc1NC(=O)Nc1cnccn1,cell number change,,-7.43%
same,AC50,[1],"0.58 µM [rising, single point]"
CCCCN1CC(=O)N2[C@H]3c4cc(Br)ccc4OC[C@@H]3[C@H](C(=O)OCC)[C@]2(C)C1=O,cell number change,,2.01%
Cc1ccc(N2C(N)=C(C#N)C(c3cccs3)C3=C2CC(C)(C)CC3=O)cc1 (centres undefined),AC50,[2],"2.91 µM [rising, partial curve]"
same,AC50,[1],"0.259 µM [rising, partial curve, poor fit]"
O=C(Cc1ccc([N+](=O)[O-])cc1)NNC(=O)c1cccs1,cell number change,,6.94%
CCN1CCCC(OC(=O)c2cc(-c3ccc(C)cc3)nc3ccccc23)C1 (centres undefined),cell number change,,-11.5%
CNc1c(NS(=O)(=O)c2ccc(Cl)s2)c(=O)oc2ccccc12,cell number change,,-10.1%
same,AC50,[1],"6.51 µM [falling, single point]"
Cc1ccc2cc(C#N)c(N3CCN(C(=O)c4ccccc4)CC3)nc2c1,cell number change,,-16.2%
same,AC50,[1],"10.3 µM [falling, single point]"
COc1ccc(C2NN=C(c3c[nH]c4ccccc34)C2O)cc1 (centres undefined),AC50,[1],"29.1 µM [falling, single point]"
O=c1oc2ccccc2cc1N1CCOCC1,AC50,[2],"6.51 µM [rising, partial curve, poor fit]"
same,AC50,[1],"6.51 µM [rising, partial curve, poor fit]"
Cc1ccc(C(=O)C2=C(O)C(=O)N(Cc3ccco3)C2c2cccc(Cl)c2)o1 (centres undefined),cell number change,,20.8%
same,AC50,[1],"6.51 µM [rising, single point]"
CCn1c(Cc2ccccc2)nnc1SCC(=O)Nc1ccc2c(c1)OCCO2,AC50,[2],"3.26 µM [rising, single point]"
CSc1ccccc1NC(=O)CN1CCN(c2ccccn2)CC1,cell number change,,-13.9%
CN(CC(=O)Nc1ccc(Cl)c(C(F)(F)F)c1)C(=O)C1CC(=O)N(CCc2ccccc2)C1 (centres undefined),cell number change,,-50%
same,AC50,[2],"2.31 µM [falling, full curve, poor fit]"
same,AC50,[1],"29.1 µM [falling, single point]"
CCOc1ccccc1NC(=O)CSc1nncc2ccccc12,cell number change,,8.73%
same,AC50,[1],"0.58 µM [rising, single point]"
C[C@H](NC(=O)C1CC(=O)N(c2ccc3c(c2)OCO3)C1)C(=O)NC1CCCC1 (some centres undefined),cell number change,,24.2%
same,AC50,[1],"29.1 µM [rising, single point]"
COc1ccc(OC)c(S(=O)(=O)Nc2ccc3oc4c(c3c2)C(=O)CCC4)c1,AC50,[2],"3.66 µM [rising, partial curve, poor fit]"
same,AC50,[1],"0.116 µM [rising, full curve, poor fit]"
CC1=NN(Cc2ccccc2)C(=O)/C1=C/c1ccc(N(C)C)cc1,cell number change,,-73.5%
O=C(COc1ccc(F)cc1F)Nc1cccnc1,cell number change,,20.7%
same,AC50,[1],"0.00517 µM [rising, full curve, poor fit]"
O=C(N/N=C/c1cc([N+](=O)[O-])ccc1O)NC12CC3CC(CC(C3)C1)C2,cell number change,,3.37%
same,AC50,[1],"3.26 µM [falling, single point]"
CC(=O)c1ccc(N2CCN(S(=O)(=O)c3ccc4ccccc4c3)CC2)cc1,cell number change,,3.62%
same,AC50,[2],"4.61 µM [falling, single point]"
same,AC50,[1],"6.51 µM [falling, single point]"
O=C(O)c1cc(O)c2c(c1)[C@H]([C@H]1c3cc(C(=O)O)cc(O)c3C(=O)c3c(O[C@@H]4O[C@H](CO)[C@@H](O)[C@H](O)[C@H]4O)cccc31)c1cccc(OC3O[C@H](CO)[C@@H](O)[C@H](O)[C@H]3O)c1C2=O (some centres undefined),cell number change,,1.15%
same,AC50,[1],"14.6 µM [rising, partial curve]"
COCC(=O)N1CCCC(C(=O)c2ccc(Oc3ccccc3)cc2)C1 (centres undefined),cell number change,,-1.55%
same,AC50,[1],"0.103 µM [falling, full curve, poor fit]"
O=C(CSC(=S)N1CCCCC1)Nc1nc(-c2ccccc2)c(-c2ccccc2)o1,cell number change,,-12.8%
same,AC50,[1],"18.4 µM [falling, single point]"
CC(C)CC(NC(=O)C(Cc1ccc(OCc2ccccc2)cc1)NC(=O)OC(C)(C)C)C(N)=O (centres undefined) (Boc-Tyr(Bn)-Leu-NH2; configuration not given here),cell number change,,19.1%
same,AC50,[1],"29.1 µM [falling, single point]"
Cc1ccc(-n2nc(C)c3c2OC(N)=C(C#N)C3c2ccc(F)cc2)cc1 (centres undefined),cell number change,,-33.9%
same,AC50,[2],"0.0103 µM [falling, full curve]"
same,AC50,[1],"0.0731 µM [falling, full curve]"
O=C(c1ccc(Cl)c(S(=O)(=O)N2CCOCC2)c1)N1CCN(c2ccccn2)CC1,cell number change,,-19%
same,AC50,[1],"29.1 µM [falling, single point]"
O=C(Cc1ccc(S(=O)(=O)N2CCOCC2)s1)Nc1ccccc1N1CCOCC1,cell number change,,-5.04%
same,AC50,[2],"0.116 µM [rising, full curve, poor fit]"
O=C(Oc1ccc(C(=S)N2CCOCC2)cc1)c1ccccc1,cell number change,,-14.2%
same,AC50,[1],"0.00651 µM [falling, full curve, poor fit]"
CCN(CC)C(=O)Cn1cnc2sc(C(=O)N3CCN(c4ccc(OC)cc4)CC3)c(C)c2c1=O,cell number change,,15.2%
same,AC50,[2],"2.06 µM [falling, partial curve]"
same,AC50,[1],"0.82 µM [falling, full curve]"
COC(=O)c1c(NC(=O)Cc2ccccc2)sc2c1CC(C)(C)NC2(C)C,cell number change,,1.8%
same,AC50,[1],"2.06 µM [rising, partial curve]"
O=C(CN1CCOCC1)NC1CC2CCC1C2 (centres undefined),AC50,[2],"6.51 µM [falling, partial curve, poor fit]"
same,AC50,[1],"3.26 µM [falling, partial curve, poor fit]"
O=C(O)CSc1nnc(COc2cccc3ccccc23)n1Cc1ccccc1,cell number change,,-18.8%
same,AC50,[2],"2.59 µM [falling, single point]"

# Exported with bars between the fields: part of the list above.
structure (smiles) | measurement | setting | value
CCOC(=O)N1CCC(N2Cc3cccc(C(=O)Nc4c(C)cccc4CC)c3C2=O)CC1 | cell number change |  | 6.45%
Cc1ccc(C)c(NC(=O)C(NCC(C)(C)N2CCOCC2)c2ccccc2)c1 (centres undefined) | AC50 | [1] | 29.1 µM [falling, single point]
COc1cc(NC(=O)C2CC(=O)NC3=C2C(=O)CC(C)(C)C3)c(OC)cc1Cl (centres undefined) | cell number change |  | 4.89%

# Three neighbouring entries out of the list so far, quoted:
structure (smiles),measurement,setting,value
O=C(CNC(=O)c1ccco1)OCC(=O)c1ccccc1,cell number change,,-49.6%
COc1ccc(OCCCc2c(C)n[nH]c2C)cc1,cell number change,,-34.5%
CN(C)c1ccc(C2CC(c3cccc(NS(C)(=O)=O)c3)=NN2C(=O)c2ccccc2)cc1 (centres undefined),cell number change,,-7.58%
